Data taken from the supplement of paper PMC10849652.
This is one part of the list.

The chains behind the UniProt entries cited, without tags or fusion partners. Where a name states a change or a piece, a line headed by the entry shows the natural chain unless it says otherwise.
UniProt Q6PIU2: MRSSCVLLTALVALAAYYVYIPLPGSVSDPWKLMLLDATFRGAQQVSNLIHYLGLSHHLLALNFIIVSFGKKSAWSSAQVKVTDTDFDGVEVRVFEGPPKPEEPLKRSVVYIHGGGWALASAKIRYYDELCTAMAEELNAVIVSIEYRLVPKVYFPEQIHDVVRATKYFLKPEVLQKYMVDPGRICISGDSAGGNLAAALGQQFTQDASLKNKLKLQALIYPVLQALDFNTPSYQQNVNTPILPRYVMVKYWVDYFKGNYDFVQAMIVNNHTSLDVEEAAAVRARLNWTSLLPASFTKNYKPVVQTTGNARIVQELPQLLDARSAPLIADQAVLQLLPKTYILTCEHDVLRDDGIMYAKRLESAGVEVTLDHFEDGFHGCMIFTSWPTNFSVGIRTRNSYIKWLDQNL
UniProt G3V1V0: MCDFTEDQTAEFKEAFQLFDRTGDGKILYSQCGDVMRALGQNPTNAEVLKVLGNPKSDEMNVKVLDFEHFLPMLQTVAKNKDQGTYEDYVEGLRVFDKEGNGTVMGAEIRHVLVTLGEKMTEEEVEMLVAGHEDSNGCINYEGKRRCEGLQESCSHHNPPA
UniProt Q9HCD5: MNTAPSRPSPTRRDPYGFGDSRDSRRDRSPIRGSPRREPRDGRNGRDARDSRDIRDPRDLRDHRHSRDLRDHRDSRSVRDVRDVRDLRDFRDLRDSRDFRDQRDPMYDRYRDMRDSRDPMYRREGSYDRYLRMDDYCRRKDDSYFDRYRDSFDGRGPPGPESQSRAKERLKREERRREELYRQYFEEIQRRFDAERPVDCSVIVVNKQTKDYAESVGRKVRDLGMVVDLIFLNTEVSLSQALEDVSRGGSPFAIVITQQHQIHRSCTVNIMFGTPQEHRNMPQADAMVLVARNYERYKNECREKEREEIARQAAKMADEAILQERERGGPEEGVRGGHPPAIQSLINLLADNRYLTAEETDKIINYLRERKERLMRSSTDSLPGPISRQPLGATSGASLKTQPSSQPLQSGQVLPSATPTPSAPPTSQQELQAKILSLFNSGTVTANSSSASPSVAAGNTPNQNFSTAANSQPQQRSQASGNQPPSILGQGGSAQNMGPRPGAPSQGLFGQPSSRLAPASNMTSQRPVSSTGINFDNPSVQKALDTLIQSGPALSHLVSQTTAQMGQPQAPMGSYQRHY
UniProt Q9Y6Q9, whole entry, looked up: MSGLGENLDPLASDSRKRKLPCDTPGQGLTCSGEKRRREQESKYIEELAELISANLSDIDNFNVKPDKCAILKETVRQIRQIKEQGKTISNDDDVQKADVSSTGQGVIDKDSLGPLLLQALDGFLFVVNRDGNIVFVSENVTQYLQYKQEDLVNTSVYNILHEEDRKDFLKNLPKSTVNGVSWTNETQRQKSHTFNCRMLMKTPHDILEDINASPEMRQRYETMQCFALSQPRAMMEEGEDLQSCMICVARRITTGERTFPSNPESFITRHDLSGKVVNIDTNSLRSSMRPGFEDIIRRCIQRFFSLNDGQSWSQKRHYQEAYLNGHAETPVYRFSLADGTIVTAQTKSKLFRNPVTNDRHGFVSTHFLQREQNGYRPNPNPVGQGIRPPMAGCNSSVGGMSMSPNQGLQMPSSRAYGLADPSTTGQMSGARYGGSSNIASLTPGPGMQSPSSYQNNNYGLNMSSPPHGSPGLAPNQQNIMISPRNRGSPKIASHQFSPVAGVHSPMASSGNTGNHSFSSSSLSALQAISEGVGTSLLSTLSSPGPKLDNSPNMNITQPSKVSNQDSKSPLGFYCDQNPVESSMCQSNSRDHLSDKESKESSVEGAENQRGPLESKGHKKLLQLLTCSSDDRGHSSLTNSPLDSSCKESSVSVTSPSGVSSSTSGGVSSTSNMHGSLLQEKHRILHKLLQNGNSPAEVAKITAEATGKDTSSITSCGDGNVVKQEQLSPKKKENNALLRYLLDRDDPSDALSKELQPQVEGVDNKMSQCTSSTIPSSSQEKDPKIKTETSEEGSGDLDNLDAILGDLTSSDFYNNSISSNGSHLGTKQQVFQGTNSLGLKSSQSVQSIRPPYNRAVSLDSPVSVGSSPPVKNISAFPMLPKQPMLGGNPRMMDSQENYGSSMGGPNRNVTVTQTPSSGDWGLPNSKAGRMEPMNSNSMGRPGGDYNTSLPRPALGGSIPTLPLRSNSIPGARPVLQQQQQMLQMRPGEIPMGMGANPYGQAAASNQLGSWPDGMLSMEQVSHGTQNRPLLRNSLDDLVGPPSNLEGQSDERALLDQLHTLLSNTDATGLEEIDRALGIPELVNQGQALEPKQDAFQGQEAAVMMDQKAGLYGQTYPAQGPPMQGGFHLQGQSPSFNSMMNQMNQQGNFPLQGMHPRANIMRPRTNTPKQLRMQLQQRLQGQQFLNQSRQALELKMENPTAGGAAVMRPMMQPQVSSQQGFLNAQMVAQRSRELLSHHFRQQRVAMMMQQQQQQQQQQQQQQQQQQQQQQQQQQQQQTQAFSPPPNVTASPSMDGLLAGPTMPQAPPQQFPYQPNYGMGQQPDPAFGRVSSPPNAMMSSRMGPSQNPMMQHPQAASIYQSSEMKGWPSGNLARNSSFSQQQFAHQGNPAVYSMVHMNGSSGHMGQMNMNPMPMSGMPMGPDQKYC
UniProt P52179: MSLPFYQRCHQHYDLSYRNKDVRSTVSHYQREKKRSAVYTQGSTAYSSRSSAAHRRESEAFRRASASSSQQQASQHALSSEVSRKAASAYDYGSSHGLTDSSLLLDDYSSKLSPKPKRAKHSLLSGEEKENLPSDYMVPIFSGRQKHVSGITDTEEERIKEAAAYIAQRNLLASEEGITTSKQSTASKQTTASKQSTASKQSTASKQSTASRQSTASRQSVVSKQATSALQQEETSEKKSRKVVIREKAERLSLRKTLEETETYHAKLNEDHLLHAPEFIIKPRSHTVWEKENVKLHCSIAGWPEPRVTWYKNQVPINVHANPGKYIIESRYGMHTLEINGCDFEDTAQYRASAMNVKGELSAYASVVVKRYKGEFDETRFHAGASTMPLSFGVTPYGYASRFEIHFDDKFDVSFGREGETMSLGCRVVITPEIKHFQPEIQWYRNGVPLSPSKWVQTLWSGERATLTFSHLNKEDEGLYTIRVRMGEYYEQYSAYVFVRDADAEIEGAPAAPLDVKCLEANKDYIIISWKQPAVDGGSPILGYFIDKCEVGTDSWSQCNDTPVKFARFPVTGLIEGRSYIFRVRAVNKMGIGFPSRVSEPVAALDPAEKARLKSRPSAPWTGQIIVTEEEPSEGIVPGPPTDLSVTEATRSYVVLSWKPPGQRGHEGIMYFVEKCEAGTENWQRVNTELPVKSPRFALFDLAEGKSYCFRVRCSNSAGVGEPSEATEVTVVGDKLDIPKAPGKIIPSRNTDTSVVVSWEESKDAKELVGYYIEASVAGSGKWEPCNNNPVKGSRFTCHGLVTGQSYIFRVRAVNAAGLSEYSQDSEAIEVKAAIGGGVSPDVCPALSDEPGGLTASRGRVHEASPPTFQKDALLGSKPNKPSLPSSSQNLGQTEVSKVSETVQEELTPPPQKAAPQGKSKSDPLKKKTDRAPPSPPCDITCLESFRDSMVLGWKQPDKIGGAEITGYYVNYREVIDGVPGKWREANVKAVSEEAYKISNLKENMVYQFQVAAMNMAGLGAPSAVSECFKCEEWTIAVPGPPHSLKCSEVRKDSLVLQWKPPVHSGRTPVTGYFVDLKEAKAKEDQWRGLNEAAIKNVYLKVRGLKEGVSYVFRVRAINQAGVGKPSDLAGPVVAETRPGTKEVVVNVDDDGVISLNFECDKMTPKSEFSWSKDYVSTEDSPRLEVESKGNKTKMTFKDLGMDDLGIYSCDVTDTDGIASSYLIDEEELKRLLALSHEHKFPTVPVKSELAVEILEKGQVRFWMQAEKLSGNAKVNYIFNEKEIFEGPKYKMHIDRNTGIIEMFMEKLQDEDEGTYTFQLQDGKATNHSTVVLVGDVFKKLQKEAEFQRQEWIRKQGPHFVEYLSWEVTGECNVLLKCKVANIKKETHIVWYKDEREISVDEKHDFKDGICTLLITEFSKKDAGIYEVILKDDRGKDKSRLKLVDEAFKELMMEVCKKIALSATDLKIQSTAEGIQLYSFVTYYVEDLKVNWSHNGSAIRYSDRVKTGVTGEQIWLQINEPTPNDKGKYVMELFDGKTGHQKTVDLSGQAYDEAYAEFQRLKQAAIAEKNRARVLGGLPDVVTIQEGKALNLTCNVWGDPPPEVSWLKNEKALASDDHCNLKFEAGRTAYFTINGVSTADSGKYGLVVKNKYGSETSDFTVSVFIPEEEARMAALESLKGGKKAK
UniProt Q8NI08: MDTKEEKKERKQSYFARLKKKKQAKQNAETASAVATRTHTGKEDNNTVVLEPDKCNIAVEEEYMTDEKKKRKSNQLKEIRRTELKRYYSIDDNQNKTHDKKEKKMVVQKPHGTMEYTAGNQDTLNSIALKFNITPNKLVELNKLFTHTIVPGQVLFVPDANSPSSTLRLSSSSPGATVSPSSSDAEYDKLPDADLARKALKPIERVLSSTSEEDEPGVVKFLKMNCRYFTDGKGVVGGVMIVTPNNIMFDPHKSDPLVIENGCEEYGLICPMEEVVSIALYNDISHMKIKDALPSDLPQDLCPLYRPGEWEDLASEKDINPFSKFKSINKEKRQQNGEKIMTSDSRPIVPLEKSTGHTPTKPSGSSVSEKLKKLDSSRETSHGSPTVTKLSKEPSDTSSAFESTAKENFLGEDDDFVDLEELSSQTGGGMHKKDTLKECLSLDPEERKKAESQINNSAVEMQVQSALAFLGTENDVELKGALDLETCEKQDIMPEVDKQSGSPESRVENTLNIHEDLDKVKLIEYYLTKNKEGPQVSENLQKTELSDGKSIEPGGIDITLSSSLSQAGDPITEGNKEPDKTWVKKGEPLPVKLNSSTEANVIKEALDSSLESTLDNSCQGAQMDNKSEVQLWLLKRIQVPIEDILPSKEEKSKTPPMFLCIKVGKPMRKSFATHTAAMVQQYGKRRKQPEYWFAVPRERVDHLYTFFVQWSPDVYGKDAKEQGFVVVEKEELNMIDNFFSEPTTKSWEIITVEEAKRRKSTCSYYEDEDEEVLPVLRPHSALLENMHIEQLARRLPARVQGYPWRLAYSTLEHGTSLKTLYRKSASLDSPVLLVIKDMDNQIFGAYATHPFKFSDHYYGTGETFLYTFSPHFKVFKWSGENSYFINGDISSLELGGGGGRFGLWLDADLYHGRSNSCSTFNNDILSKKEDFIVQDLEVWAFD
UniProt P55209: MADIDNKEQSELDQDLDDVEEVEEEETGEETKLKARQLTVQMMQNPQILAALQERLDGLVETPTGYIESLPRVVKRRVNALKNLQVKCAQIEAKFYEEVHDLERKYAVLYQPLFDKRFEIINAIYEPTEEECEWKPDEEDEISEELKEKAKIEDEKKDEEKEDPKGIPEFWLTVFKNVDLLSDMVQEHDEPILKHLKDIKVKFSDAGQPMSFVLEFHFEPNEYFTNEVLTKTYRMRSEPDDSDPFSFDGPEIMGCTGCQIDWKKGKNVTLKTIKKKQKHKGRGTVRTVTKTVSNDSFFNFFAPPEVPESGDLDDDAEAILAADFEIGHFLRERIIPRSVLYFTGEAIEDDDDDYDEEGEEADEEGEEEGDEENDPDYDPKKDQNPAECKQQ
UniProt Q02083: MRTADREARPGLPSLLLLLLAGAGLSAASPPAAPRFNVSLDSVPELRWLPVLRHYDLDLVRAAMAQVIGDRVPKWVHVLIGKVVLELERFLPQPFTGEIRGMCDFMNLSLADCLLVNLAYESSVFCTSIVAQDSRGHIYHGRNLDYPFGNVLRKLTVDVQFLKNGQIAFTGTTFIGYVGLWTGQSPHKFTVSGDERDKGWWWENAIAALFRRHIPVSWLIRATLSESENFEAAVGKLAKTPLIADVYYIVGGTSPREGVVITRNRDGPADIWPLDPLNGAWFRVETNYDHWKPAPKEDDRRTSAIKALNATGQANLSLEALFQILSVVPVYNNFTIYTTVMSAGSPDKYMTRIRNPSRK
UniProt Q13506: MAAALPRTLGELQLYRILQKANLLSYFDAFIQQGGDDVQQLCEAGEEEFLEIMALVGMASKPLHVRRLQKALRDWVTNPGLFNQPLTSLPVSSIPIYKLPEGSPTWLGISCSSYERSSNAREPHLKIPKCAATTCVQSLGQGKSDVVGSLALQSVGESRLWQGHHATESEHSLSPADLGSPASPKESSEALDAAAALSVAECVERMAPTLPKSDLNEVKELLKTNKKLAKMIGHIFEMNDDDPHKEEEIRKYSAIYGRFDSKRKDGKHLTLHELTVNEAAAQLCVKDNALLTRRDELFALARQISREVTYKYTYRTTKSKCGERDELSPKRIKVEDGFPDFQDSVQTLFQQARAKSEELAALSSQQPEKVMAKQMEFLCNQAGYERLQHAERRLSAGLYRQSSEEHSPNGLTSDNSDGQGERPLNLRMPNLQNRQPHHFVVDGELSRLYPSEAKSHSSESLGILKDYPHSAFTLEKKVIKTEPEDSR
UniProt Q8N6N6: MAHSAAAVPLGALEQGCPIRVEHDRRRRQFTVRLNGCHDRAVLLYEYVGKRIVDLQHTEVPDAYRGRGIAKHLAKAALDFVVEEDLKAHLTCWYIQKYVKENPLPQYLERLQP

What was measured:
Assay in all cases: log2 fold change, soluble protein after heating vs DMSO (PISA); higher = thermal stabilisation; K562 lysate, 10 uM; active = over 0.2 and 3.5 SD of the protein, either way, in both replicates (recomputed)
nilotinib = compound: Cc1cn(-c2cc(NC(=O)c3ccc(C)c(Nc4nccc(-c5cccnc5)n4)c3)cc(C(F)(F)F)c2)cn1 [nilotinib]
Summary of the method: (§1)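 Log-two fold change in thermal stability relative to solvent controls is reported from duplicates. For each sample, crude K562 extract from dounce-homogenised pellets in PBS pH 7.4 with 1 mM MgCl2, at 1 mg/mL protein, was treated with 10 μM compound for 30 min. Aliquots heated for 3 min across 48°C-58°C were pooled, brought to 0.5% NP-40 at 4°C and cleared at 21,000xg for 90 min. The supernatant was quantified by TMTpro 16plex LC-MS/MS with channel sums equalised.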

[1] = compound: Cc1nc(Nc2n[nH]c3c2CN(C(=O)N[C@H](CN(C)C)c2ccccc2)C3(C)C)c2sccc2n1
Summary of the method: as §1

dasatinib = compound: Cc1nc(Nc2ncc(C(=O)Nc3c(C)cccc3Cl)s2)cc(N2CCN(CCO)CC2)n1 [dasatinib]
Summary of the method: as §1

[2] = compound: Cc1ncc(-c2ccnc(Nc3ccc(S(C)(=O)=O)cc3)n2)n1C(C)C
Summary of the method: as §1

[3] = compound: Cn1cc(-c2ccc3c(c2)CCN3C(=O)Cc2cccc(C(F)(F)F)c2)c2c(N)ncnc21
Summary of the method: as §1

quisinostat = compound: Cn1cc(CNCC2CCN(c3ncc(C(=O)NO)cn3)CC2)c2ccccc21 [quisinostat]
Summary of the method: as §1

tipifarnib = compound: Cn1cncc1[C@@](N)(c1ccc(Cl)cc1)c1ccc2c(c1)c(-c1cccc(Cl)c1)cc(=O)n2C [tipifarnib]
Summary of the method: as §1

[4] = compound: NC(=O)Nc1cc(-c2cccc(F)c2)sc1C(=O)N[C@H]1CCCNC1
Summary of the method: as §1

[5] = compound: NC(=O)c1cnc(N[C@@H]2CCCC[C@@H]2N)nc1Nc1cccc(-n2nccn2)c1
Summary of the method: as §1

[6] = compound: NC1(c2ccc(-c3nc4ccn5c(=O)[nH]nc5c4cc3-c3ccccc3)cc2)CCC1
Summary of the method: as §1

[7] = compound: NCC(=O)Nc1ccc(-n2nc(C(F)(F)F)cc2-c2ccc3c(ccc4ccccc43)c2)cc1
Summary of the method: as §1

vorinostat = compound: O=C(CCCCCCC(=O)Nc1ccccc1)NO [vorinostat]
Summary of the method: as §1

silmitasertib = compound: O=C(O)c1ccc2c(c1)nc(Nc1cccc(Cl)c1)c1ccncc12 [silmitasertib]
Summary of the method: as §1

[8] = compound: O=C1NC(=O)C(c2cnc3ccccn23)=C1c1cn2c3c(cc(F)cc13)CN(C(=O)N1CCCCC1)CC2
Summary of the method: as §1

entospletinib = compound: c1cn2cc(-c3ccc4cn[nH]c4c3)nc(Nc3ccc(N4CCOCC4)cc3)c2n1 [entospletinib]
Summary of the method: as §1

Row | Target | log2 fold change (nilotinib) | log2 fold change [1] | log2 fold change (dasatinib) | log2 fold change [2] | log2 fold change [3] | log2 fold change (quisinostat) | log2 fold change (tipifarnib) | log2 fold change [4] | log2 fold change [5] | log2 fold change [6] | log2 fold change [7] | log2 fold change (vorinostat) | log2 fold change (silmitasertib) | log2 fold change [8] | log2 fold change (entospletinib)
1 | NCR3LG1 (UniProt Q68D85) | inactive: 0.065 | inactive: -0.1 | inactive: 0.008 | inactive: -0.019 | inactive: -0.012 | inactive: 0.033 | inactive: 0.007 | inactive: 0.01 | inactive: -0.026 | inactive: 0.023 | inactive: 0.027 | inactive: 0.049 | inactive: -0.006 | inactive: -0.008 | inactive: -0.01
2 | NACA (UniProt E9PAV3) | inactive: -0.004 | inactive: -0.004 | inactive: -0.012 | inactive: -0.034 | inactive: 0.002 | inactive: -0.07 | inactive: 0.016 | inactive: 0.019 | inactive: -0.02 | inactive: -0.002 | inactive: 0.044 | inactive: 0.13 | inactive: -0.018 | inactive: -0.012 | inactive: -0.001
3 | NCEH1 (UniProt Q6PIU2) | inactive: 0.035 | inactive: 0.017 | inactive: 0.04 | inactive: -0.034 | inactive: 0.046 | inactive: 0.024 | inactive: 0 | inactive: -0.003 | inactive: 0.009 | inactive: 0.004 | inactive: -0.019 | inactive: 0.128 | inactive: 0.006 | inactive: -0.008 | inactive: -0.039
4 | MYDGF (UniProt Q969H8) | inactive: -0.007 | inactive: 0.003 | inactive: 0.007 | inactive: 0.014 | inactive: 0.015 | inactive: -0.084 | inactive: 0.005 | inactive: 0.012 | inactive: -0.027 | inactive: -0.006 | inactive: 0.025 | inactive: 0.138 | inactive: 0.011 | inactive: 0 | inactive: -0.001
5 | MYL6 (UniProt G3V1V0) | inactive: 0.011 | inactive: 0.118 | inactive: -0.004 | inactive: 0.087 | inactive: -0.036 | inactive: -0.088 | inactive: -0.057 | inactive: -0.04 | inactive: 0.042 | inactive: -0.091 | inactive: -0.297 | inactive: -0.023 | inactive: 0.105 | inactive: -0.061 | inactive: -0.102
6 | NCOA5 (UniProt Q9HCD5) | inactive: -0.068 | inactive: -0.146 | inactive: -0.054 | inactive: 0.039 | inactive: 0 | inactive: -0.055 | inactive: -0.093 | inactive: 0.016 | inactive: -0.022 | inactive: -0.154 | inactive: 0.014 | inactive: 0.123 | inactive: -0.005 | inactive: 0 | inactive: -0.097
7 | NCOA3 (UniProt Q9Y6Q9) | inactive: 0.006 | inactive: -0.026 | inactive: -0.078 | inactive: 0.063 | inactive: 0.002 | inactive: -0.027 | inactive: -0.038 | inactive: 0.053 | inactive: -0.067 | inactive: 0.038 | inactive: 0.014 | inactive: -0.163 | inactive: -0.033 | inactive: -0.009 | inactive: -0.018
8 | MYOM1 (UniProt P52179) | inactive: -0.127 | inactive: -0.078 | inactive: 0.058 | inactive: 0.039 | inactive: 0.023 | inactive: 0.115 | inactive: 0.01 | inactive: 0.083 | inactive: -0.016 | inactive: -0.035 | inactive: 0.062 | inactive: 0.055 | inactive: 0.014 | inactive: 0.292 | inactive: 0.028
9 | MYO6 isoform 6 (UniProt Q9UM54) | inactive: -0.065 | inactive: 0 | inactive: -0.196 | inactive: 0.024 | inactive: 0.098 | inactive: -0.031 | inactive: -0.001 | inactive: 0.034 | inactive: -0.002 | inactive: -0.051 | inactive: -0.019 | inactive: -0.037 | inactive: 0.014 | inactive: 0.023 | inactive: -0.001
10 | NCOA7 (UniProt Q8NI08) | inactive: -0.009 | inactive: -0.005 | inactive: -0.016 | inactive: 0.016 | inactive: 0.005 | inactive: -0.007 | inactive: -0.002 | inactive: 0.019 | inactive: -0.006 | inactive: 0.005 | inactive: 0.038 | inactive: -0.091 | inactive: -0.012 | inactive: -0.001 | inactive: -0.013
11 | NAV1 (UniProt Q8NEY1) | inactive: -0.004 | inactive: -0.015 | inactive: 0.054 | inactive: 0.009 | inactive: -0.018 | inactive: -0.016 | inactive: -0.019 | inactive: 0.022 | inactive: -0.041 | inactive: -0.037 | inactive: 0.035 | inactive: -0.132 | inactive: 0.007 | inactive: -0.021 | inactive: 0.02
12 | NAP1L1 isoform 3 (UniProt P55209) | inactive: -0.016 | inactive: -0.005 | inactive: -0.026 | inactive: -0.053 | inactive: -0.221 | inactive: -0.196 | inactive: -0.041 | inactive: 0.053 | inactive: 0.021 | inactive: 0.115 | inactive: 0.196 | inactive: -0.292 | inactive: 0.153 | inactive: -0.238 | inactive: -0.044
13 | NCKIPSD (UniProt Q9NZQ3) | inactive: 0.015 | inactive: 0.017 | inactive: -0.02 | inactive: -0.204 | inactive: 0.097 | inactive: 0.093 | inactive: -0.042 | inactive: 0.039 | inactive: 0.03 | inactive: 0.078 | inactive: 0.005 | inactive: -0.214 | inactive: 0.027 | inactive: -0.062 | inactive: -0.008
14 | MYCBP2 (UniProt O75592) | inactive: 0.028 | inactive: -0.013 | inactive: -0.038 | inactive: -0.013 | inactive: 0.015 | inactive: -0.116 | inactive: -0.008 | inactive: 0.019 | inactive: 0.012 | inactive: -0.013 | inactive: 0.031 | active: -0.223 | inactive: -0.002 | inactive: 0.007 | inactive: -0.002
15 | NAAA (UniProt Q02083) | inactive: 0.289 | inactive: -0.026 | inactive: 0.012 | inactive: -0.04 | inactive: -0.015 | inactive: 0.069 | inactive: -0.064 | inactive: -0.004 | inactive: 0.04 | inactive: -0.147 | inactive: -0.01 | inactive: 0.076 | inactive: -0.013 | inactive: -0.001 | inactive: 0.049
16 | NAB1 (UniProt Q13506) | inactive: 0.021 | inactive: 0.06 | inactive: 0.081 | inactive: -0.007 | inactive: 0.06 | inactive: -0.069 | inactive: -0.002 | inactive: 0.199 |  | inactive: 0.243 |  | inactive: -0.311 | inactive: 0.02 | inactive: 0.039 | 
17 | NCBP1 (UniProt Q09161) | inactive: -0.013 | inactive: 0.017 | inactive: -0.002 | inactive: -0.005 | inactive: 0 | inactive: -0.044 | inactive: 0.011 | inactive: 0.023 | inactive: 0.007 | inactive: -0.032 | inactive: 0.002 | inactive: -0.149 | inactive: 0.05 | inactive: -0.013 | inactive: -0.01
18 | NATD1 (UniProt Q8N6N6) | inactive: -0.051 | inactive: 0.013 | inactive: -0.01 | inactive: -0.042 | inactive: -0.124 | inactive: -0.101 | inactive: 0.15 | inactive: 0.025 |  | inactive: 0.032 | inactive: 0.031 | inactive: -0.196 | inactive: -0.051 | inactive: -0.011 | inactive: 0.06

Single entries from above:
Value for NACA (UniProt E9PAV3) under log2 fold change [1]: inactive: -0.004
Value for NAV1 (UniProt Q8NEY1) under log2 fold change (dasatinib): inactive: 0.054
